Measured values published in article PMC11335216.
Where two headings read alike, the source gives them in different places. No constants are given. Whether binding was seen depends on the method and setting. Binding seen in cells or lysates may run through a third protein. Some binding calls cover weakened binding; strength is not graded here. Tags and fused reporters may be left off the sequences shown. One block for each molecule: values may come before it.

Sequences of proteins named here, by UniProt entry; tags and fusion partners are left off. Residues count along the entry.
UniProt P05161, residues 1-157: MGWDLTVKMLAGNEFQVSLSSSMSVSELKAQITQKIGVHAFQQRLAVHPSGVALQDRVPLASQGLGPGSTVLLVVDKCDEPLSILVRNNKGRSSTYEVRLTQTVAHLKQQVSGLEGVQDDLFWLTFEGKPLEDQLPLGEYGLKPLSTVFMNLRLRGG

Legend:
Assay in all cases: co-IP; lysates of cells transfected with PPP2R2B-FLAG or vector control; anti-FLAG magnetic beads or Protein A/G magnetic beads plus anti-PPP2R2B, anti-IPO5 or anti-ISG15 antibody overnight at 4 °C; eluted in SDS buffer; western blot; with and without PPP2R2B overexpression
[1] = target: T1, PPP2R2B-FLAG (serine/threonine protein phosphatase 2A regulatory subunit PPP2R2B) (human) (UniProt Q00005)
T1 sequence: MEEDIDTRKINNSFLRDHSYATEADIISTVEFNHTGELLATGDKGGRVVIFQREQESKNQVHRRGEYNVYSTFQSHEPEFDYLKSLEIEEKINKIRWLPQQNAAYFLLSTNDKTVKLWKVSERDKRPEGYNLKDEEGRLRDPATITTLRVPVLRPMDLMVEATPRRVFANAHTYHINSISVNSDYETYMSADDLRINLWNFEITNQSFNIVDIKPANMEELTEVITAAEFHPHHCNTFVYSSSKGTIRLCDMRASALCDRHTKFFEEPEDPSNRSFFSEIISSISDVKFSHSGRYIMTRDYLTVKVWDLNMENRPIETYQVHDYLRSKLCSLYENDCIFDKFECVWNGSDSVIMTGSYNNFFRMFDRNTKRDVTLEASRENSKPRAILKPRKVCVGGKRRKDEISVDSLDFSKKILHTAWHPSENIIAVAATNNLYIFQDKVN

[2] = target: T1, PPP2R2B-FLAG (serine/threonine protein phosphatase 2A regulatory subunit PPP2R2B) (human); remark: listed apart in the source
[3] = target: T2, importin 5 (IPO5) (human (endogenous in the human cell lines used)) (UniProt O00410)
T2 sequence: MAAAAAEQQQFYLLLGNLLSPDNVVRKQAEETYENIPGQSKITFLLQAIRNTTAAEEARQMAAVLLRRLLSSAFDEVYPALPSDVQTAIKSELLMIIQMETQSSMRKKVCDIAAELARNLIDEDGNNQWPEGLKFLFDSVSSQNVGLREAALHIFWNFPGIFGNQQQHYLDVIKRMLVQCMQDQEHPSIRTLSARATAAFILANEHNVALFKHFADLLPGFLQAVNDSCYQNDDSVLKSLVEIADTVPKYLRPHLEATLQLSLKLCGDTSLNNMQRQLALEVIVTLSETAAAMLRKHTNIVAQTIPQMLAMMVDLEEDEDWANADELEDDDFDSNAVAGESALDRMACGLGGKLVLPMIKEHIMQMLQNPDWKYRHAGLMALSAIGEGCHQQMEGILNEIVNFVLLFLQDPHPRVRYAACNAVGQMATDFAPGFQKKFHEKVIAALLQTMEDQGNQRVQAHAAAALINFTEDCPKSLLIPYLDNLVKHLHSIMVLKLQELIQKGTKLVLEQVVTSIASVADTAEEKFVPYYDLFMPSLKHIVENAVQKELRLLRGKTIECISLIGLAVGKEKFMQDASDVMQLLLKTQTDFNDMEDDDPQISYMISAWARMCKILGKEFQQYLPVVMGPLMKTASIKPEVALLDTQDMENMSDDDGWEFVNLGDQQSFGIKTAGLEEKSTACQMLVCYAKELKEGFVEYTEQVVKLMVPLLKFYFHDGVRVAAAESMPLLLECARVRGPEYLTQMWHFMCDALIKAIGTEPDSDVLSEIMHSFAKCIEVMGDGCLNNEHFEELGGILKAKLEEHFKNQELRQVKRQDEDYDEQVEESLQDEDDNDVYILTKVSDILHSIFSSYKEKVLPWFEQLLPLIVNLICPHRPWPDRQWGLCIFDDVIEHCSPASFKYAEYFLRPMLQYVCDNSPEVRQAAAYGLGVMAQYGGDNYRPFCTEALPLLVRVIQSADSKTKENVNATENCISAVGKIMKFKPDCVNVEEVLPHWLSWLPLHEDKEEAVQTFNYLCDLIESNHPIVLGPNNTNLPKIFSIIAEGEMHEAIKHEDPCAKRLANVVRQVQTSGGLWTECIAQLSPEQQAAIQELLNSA

binding [1]: binds
Molecule: interferon stimulated gene 15 (ISG15) (from UniProt P05161 1-157)

binding [2]: binds
B1: importin 5 (IPO5) (protein, UniProt O00410 1-1097)
chain: T2 sequence

binding [3]: binds
B2: PPP2R2B-FLAG (serine/threonine protein phosphatase 2A regulatory subunit PPP2R2B) (protein, UniProt Q00005 1-443)
chain: T1 sequence
